Data on one molecule can be found in article PMC5408348, “The biochemical properties of the two Arabidopsis thaliana isochorismate synthases” (Biochemical Journal, 2017).

These are yes or no findings as the source states them, for the method shown. Sequences can lack the tags named with a protein.

The test concerns the target His6-AtICS2 (Arabidopsis thaliana isochorismate synthase 2, hexahistidine fusion, without the transit peptide) (Arabidopsis thaliana) (UniProt Q9M9V6). The experiment in a line: SEC; HiLoad 16/60 Superdex 200 preparative grade column with standards; 50 mM Tris-HCl pH 8.0, 500 µM EDTA, 10% v/v glycerol, 1 mM DTT; 4°C; 0.5 ml/min; both purified. (In gel filtration, larger molecules generally elute earlier.)

B1: His6-AtICS2 (Arabidopsis thaliana isochorismate synthase 2, hexahistidine fusion, without the transit peptide) (enzyme, UniProt Q9M9V6 56-562)
chain: ADHKAPLGTVETRTLSTVPSPAAATERLITAVSDLKSQPPPFSSGIVRLQVPIEQKIGAIDWLHAQNEILPRSFFSRRSDSGRPDLLQDFSSDNGSSDHNPVSVAGIGSAVFFRDLDPFSHDDWRSIRRFLSSKSPLIRAYGGLRFDPTGKIAVEWEHFGSFYFTVPQVEFDEFGGSSMLAATVAWDNELSWTLENAIEALQETMLQVSSVIMRLRRESLGVIVVSKNHVPSEGAYYPAVNNALEIIKDKHSPLSKVVLARSSRIITDTDIDPIAWLARLQCEGQDAYQFCLQPPGAPAFIGNTPERLFHRKHLGVCSEALAATRPRGDSKVREMEIERDLLTSPKDDLEFSIVRENIREKLKTICDRVVVKPHKSVRKLARVQHLYSQLAGQLKREDDEFNILTALHPTPAVCGCPVEEARLLIKQIESFDRGMYAGPIGFFGGGESEFSVGIRSALVEKGLGALIYAGTGIVSGSNPSSEWNELELKISQFTKSLEHESALQPIN
As to B1, the binding entry was “no binding”.
